Here are results for 1 molecule from US20120121576A1.

The chains behind the UniProt entries cited, without tags or fusion partners. Where a name states a change or a piece, a line headed by the entry shows the natural chain unless it says otherwise.
UniProt P27037: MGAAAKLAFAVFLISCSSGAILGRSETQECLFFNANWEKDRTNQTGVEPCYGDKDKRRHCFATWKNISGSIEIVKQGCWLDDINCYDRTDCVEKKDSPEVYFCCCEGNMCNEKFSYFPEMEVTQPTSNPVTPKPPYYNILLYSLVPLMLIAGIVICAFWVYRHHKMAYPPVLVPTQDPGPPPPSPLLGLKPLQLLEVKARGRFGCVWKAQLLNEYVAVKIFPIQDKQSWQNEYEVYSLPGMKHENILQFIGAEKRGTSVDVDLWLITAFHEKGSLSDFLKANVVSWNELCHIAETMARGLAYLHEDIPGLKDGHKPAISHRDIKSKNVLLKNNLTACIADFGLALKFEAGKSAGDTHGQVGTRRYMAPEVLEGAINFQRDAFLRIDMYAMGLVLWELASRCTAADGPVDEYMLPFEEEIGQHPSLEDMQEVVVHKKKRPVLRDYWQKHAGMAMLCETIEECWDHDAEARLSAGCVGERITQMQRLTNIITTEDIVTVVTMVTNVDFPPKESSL

No constants are given. Whether binding was seen depends on the method and setting. Some entries that bind do so weakly or less than the wild type.

The target of this test is ActRIIA-Fc (ActRIIA-mFc, dimeric protein) (human) (UniProt P27037). Description: summary sentence after the examples; form of ActRIIA not named there.

B1: Ab-14E1 (antibody 14E1; hybridoma subclone 14E1.H8.H1) (antibody, V domains shown)
VH: DVQLQESGPGLVKPSQSLSLTCSVTGYSITSGYYWNWIRQFPGNKLEWMGYISYDGSNNYNPSLINRISITRDTSKNQFFLKLNSVTTEDTATYFCASYAYRNDVRFAYWGQGTLVTVSA
VL: DIQMTQTTSSLSASLGDRVTISCRASQDISNFLNWYQQKPDGTVKLLIYFTSRLHSGVPSRFSGSGSGTDYSLTITNLEQEDIATYFCQQGNTLPWTFGGGTKLEIK
In the case of B1, the binding entry is on record as “binds”.
